Assay: Downstream interference of denaturants in generic LC-MS peptide mapping method
Conditions: 1 mM denaturant in digestion buffer

Row | Compound | interference peaks across the gradient (1-40% acetonitrile) where peptides normally elute
1 | CN(C)C(=N)N(C)C [Reagent 1, 1,1,3,3-tetramethylguanidine] | did not appear to show significant interference peaks
2 | CN(C)C(=NC(C)(C)C)N(C)C [Reagent 2, 2-tert-butyl-1,1,3,3-tetramethylguanidine] | showed two prominent peaks
3 | C1CN=C2NCCCN2C1 [Reagent 3, 1,5,7-triazabicyclo[4.4.0]dec-5-ene] | did not appear to show significant interference peaks

— patent US20210388022A1, “SUBSTITUTED GUANIDINO AND AMIDINO REAGENTS AND THE USE THEREOF FOR PROTEIN DENATURATION” (Waters Technologies Corporation, priority 2020, published 2021)
